Measurements: patent US6344344B1, “Method for producing uridine-5'-monophosphate by fermentation using mutant strains of coryneform bacteria” (Ajinomoto Co., Inc., priority 1999, dated 2002)
Some of these results come from one statement about several compounds together. For at least one compound, name, drawing or mass did not settle the structure.

System: Corynebacterium ammoniagenes VKPM B-6307
Format: cell-based
Conditions: cultivation on basal agar medium A

O=c1[nH]c(=O)n([C@@H]2O[C@H](CO)[C@@H](O)[C@H]2O)cc1F [5-Fluouridine]
concentration up to which the strain VKPM B-6307 is resistant: ≤ 1000 µg/mL
